Patent US20180362485A1, “N-HYDROXYFORMAMIDE COMPOUNDS AND COMPOSITIONS COMPRISING THEM FOR USE AS BMP l, TLL1 AND/OR TLL2 INHIBITORS” (GlaxoSmithKline Intellectual Property (No. 2) Limited, priority 2015, published 2018)
Where a name gives a salt, the structure may show the parent alone. Some results were stated once for a whole list of compounds, not compound by compound.

Experiment: Human plasma stability assay
Conditions: 37° C., within 24 hours

Row | SMILES | conversion to a BMP1, TLL1 and/or TLL2 inhibitor in human plasma
1 | CCCCC[C@@H](C(=O)NCNC(=O)c1ccc(-c2cc(OCC)cc(P(=O)(O)O)c2)o1)[C@@H](CC)N(C=O)OC(=O)c1ccc(N2CCCC2)c(F)c1 [Example 62, (3-ethoxy-5-(5-((((R)-2-((R)-1-(N-((3-fluoro-4-(pyrrolidin-1-yl)benzoyl)oxy) formamido)propyl)heptanamido)methyl)carbamoyl)furan-2-yl)phenyl)phosphonic acid, 2Ammonia salt] | convert to a BMP1, TLL1 and/or TLL2 inhibitor within 24 hours
2 | CCCCC[C@@H](C(=O)NCNC(=O)c1ccc(-c2ccc(C(=O)N[C@@H](CC(=O)O)C(=O)O)c(OCC)c2)o1)[C@@H](CC)N(C=O)OC(=O)NC(C)(C)c1ccccc1 [Example 75, (S)-2-(2-ethoxy-4-(5-(((4R,5R)-5-ethyl-6-formyl-10-methyl-3,8-dioxo-4-pentyl-10-phenyl-7-oxa-2,6,9-triazaundecyl)carbamoyl)furan-2-yl)benzamido) succinic acid] | convert to a BMP1, TLL1 and/or TLL2 inhibitor within 24 hours
3 | CCCCC[C@@H](C(=O)NCNC(=O)c1ccc(-c2ccc(C(=O)N[C@@H](CC(=O)O)C(=O)O)c(OCC)c2)o1)[C@@H](CC)N(C=O)OC(=O)c1ccc(-n2cccn2)cc1 [Example 130, (S)-2-(4-(5-((((R)-2-((R)-1-(N-((4-(1H-pyrazol-1-yl)benzoyl)oxy) formamido)propyl)heptanamido)methyl)carbamoyl)furan-2-yl)-2-ethoxybenzamido) succinic acid] | convert to a BMP1, TLL1 and/or TLL2 inhibitor within 24 hours
4 | CCCCC[C@@H](C(=O)NCNC(=O)c1ccc(-c2ccc(C(=O)O)cc2)o1)[C@@H](CC)N(C=O)OC(=O)c1ccccc1 [Example 202, 4-(5-((((R)-2-((R)-1-(N-(benzoyloxy) formamido)propyl)heptanamido)methyl)carbamoyl)furan-2-yl)benzoic acid] | convert to a BMP1, TLL1 and/or TLL2 inhibitor within 24 hours
5 | CCCCC[C@@H](C(=O)NCNC(=O)c1ccc(-c2ccc(C(=O)N[C@@H](CC(=O)O)C(=O)O)c(OCC(=O)O)c2)o1)[C@@H](CC)N(C=O)OC(=O)C(c1ccccc1)c1ccccc1 [Example 27, (S)-2-(2-(carboxymethoxy)-4-(5-((((R)-2-((R)-1-(N-(2,2-diphenylacetoxy) formamido)propyl)heptanamido)methyl)carbamoyl)furan-2-yl)benzamido) succinic acid] | convert to a BMP1, TLL1 and/or TLL2 inhibitor within 24 hours
6 | CCCCC[C@@H](C(=O)NCNC(=O)c1ccc(-c2ccc(C(=O)N[C@@H](CC(=O)O)C(=O)O)c(OCC(=O)O)c2)o1)[C@@H](CC)N(C=O)OC(=O)c1ccc2ccccc2c1 [Example 34, (S)-2-(4-(5-((((R)-2-((R)-1-(N-((2-naphthoyl)oxy) formamido)propyl)heptanamido)methyl)carbamoyl)furan-2-yl)-2-(carboxymethoxy)benzamido) succinic acid] | convert to a BMP1, TLL1 and/or TLL2 inhibitor within 24 hours
7 | CCCCC[C@@H](C(=O)NCNC(=O)c1ccc(-c2ccc(C(=O)OCCc3ccccc3)cc2)o1)[C@@H](CC)N(O)C=O [Example 102, phenethyl 4-(5-((((R)-2-((R)-1-(N-hydroxyformamido)propyl)heptanamido)methyl)carbamoyl)furan-2-yl)benzoate] | convert to a BMP1, TLL1 and/or TLL2 inhibitor within 24 hours
8 | CCCCC[C@@H](C(=O)NCNC(=O)c1ccc(-c2ccc(C(=O)N[C@@H](CC(=O)O)C(=O)O)c(OCC)c2)o1)[C@@H](CC)N(C=O)OC(=O)c1ccc(C(F)(F)F)cc1 [Example 119, (S)-2-(2-ethoxy-4-(5-((((R)-2-((R)-1-(N-((4-(trifluoromethyl)benzoyl)oxy) formamido)propyl)heptanamido)methyl)carbamoyl)furan-2-yl)benzamido) succinic acid] | convert to a BMP1, TLL1 and/or TLL2 inhibitor within 24 hours
9 | CCCCC[C@@H](C(=O)NCNC(=O)c1ccc(-c2ccc(C(=O)N[C@@H](CC(=O)O)C(=O)O)c(OCC)c2)o1)[C@@H](CC)N(C=O)OC(=O)c1ccc(OCCOCCO)cc1 [Example 135, (S)-2-(2-ethoxy-4-(5-((((R)-2-((R)-1-(N-((4-(2-(2-hydroxyethoxy)ethoxy)benzoyl)oxy) formamido)propyl)heptanamido)methyl)carbamoyl)furan-2-yl)benzamido) succinic acid] | convert to a BMP1, TLL1 and/or TLL2 inhibitor within 24 hours
10 | CCCCC[C@@H](C(=O)NCNC(=O)c1ccc(-c2ccc(C(=O)N[C@@H](CC(=O)O)C(=O)O)c(OCC)c2)o1)[C@@H](CC)N(C=O)OC(=O)c1c(C)ccnc1C [Example 99, (S)-2-(4-(5-((((R)-2-((R)-1-(N-((2,4-dimethylnicotinoyl)oxy)formamido)propyl)heptanamido)methyl)carbamoyl)furan-2-yl)-2-ethoxybenzamido) succinic acid] | convert to a BMP1, TLL1 and/or TLL2 inhibitor within 24 hours
11 | CCCCC[C@@H](C(=O)NCNC(=O)c1ccc(-c2ccc(C(=O)N[C@@H](CC(=O)O)C(=O)O)c(OCC)c2)o1)[C@@H](CC)N(C=O)OC(=O)c1ccc(C(F)(F)F)cc1C [Example 126, (S)-2-(2-ethoxy-4-(5-((((R)-2-((R)-1-(N-((2-methyl-4-(trifluoromethyl)benzoyl)oxy) formamido)propyl)heptanamido)methyl)carbamoyl)furan-2-yl)benzamido) succinic acid] | convert to a BMP1, TLL1 and/or TLL2 inhibitor within 24 hours
12 | CCCCC[C@@H](C(=O)NCNC(=O)c1ccc(-c2ccc(C(=O)N[C@@H](CC(=O)O)C(=O)O)c(OCC(=O)O)c2)o1)[C@@H](CC)N(C=O)OC(=O)c1ccncc1C [Example 40, (S)-2-(2-(carboxymethoxy)-4-(5-((((R)-2-((R)-1-(N-((3-methylisonicotinoyl)oxy)formamido)propyl)heptanamido)methyl)carbamoyl)furan-2-yl)benzamido)succinic acid, 3 Ammonia salt] | convert to a BMP1, TLL1 and/or TLL2 inhibitor within 24 hours
13 | CCCCC[C@@H](C(=O)NCNC(=O)c1ccc(-c2ccc(C(=O)N[C@@H](CC(=O)O)C(=O)O)c(OCC)c2)o1)[C@@H](CC)N(C=O)OC(=O)c1ccc(F)cc1C(C)C [Example 67, (S)-2-(2-ethoxy-4-(5-((((R)-2-((R)-1-(N-((4-fluoro-2-isopropylbenzoyl)oxy)formamido)propyl)heptanamido)methyl)carbamoyl)furan-2-yl)benzamido)succinic acid] | convert to a BMP1, TLL1 and/or TLL2 inhibitor within 24 hours
14 | CCCCC[C@@H](C(=O)NCNC(=O)c1ccc(-c2ccc(C(=O)N[C@@H](CC(=O)O)C(=O)O)c(OCC(=O)O)c2)o1)[C@@H](CC)N(C=O)OC(=O)c1c(C)noc1C [Example 25, (S)-2-(2-(carboxymethoxy)-4-(5-((((R)-2-((R)-1-(N-((3,5-dimethylisoxazole-4-carbonyl)oxy) formamido)propyl)heptanamido)methyl)carbamoyl)furan-2-yl)benzamido) succinic acid] | convert to a BMP1, TLL1 and/or TLL2 inhibitor within 24 hours
